Source: PubChem BioAssay AID1259308 (NCATS, 2017)

Assay: 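Candidate targets for better recombinant protein yield in mammalian cells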 (primary screen)
Cell system: human HEK293 embryonic kidney cells stably expressing firefly luciferase (HEK-CMV-Luc2-Hygro)
Reagent: single siRNA against human genes, 0.8 pmol siRNA per well
Time to read-out: 72 h
Detection: 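Luciferase light (ONE-Glo) measured on one replicate plate set and viability (CellTiter-Glo) on the other, scaled to a negative control siRNA, with robust z-scores and luciferase per cell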
Scale: total luciferase, z-score: higher = more reporter protein produced
Call rule: 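Active when the median/MAD z-score for overall luciferase is greater than 3; a gene was taken forward for validation with new siRNAs if at least two of its three siRNAs passed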
Calls: active = raised luciferase; inactive = no rise
The whole screen tested about 59,000 reagents; below is a random part of them. About 1,510 of all reagents (2.6%) were called active. 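Calls use total luciferase alone and ignore viability, so some active siRNAs may act by altering cell number.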 The numbers tell different reagents against one gene apart. Further read-outs or replicates are left out here. No sequences are given here.

no.	target gene	reagent	total luciferase, z-score	outcome
1	GLCCI1 (GeneID 113263)	1	-0.545	inactive
2	GLCCI1 (GeneID 113263)	2	1.07	inactive
3	GLCCI1 (GeneID 113263)	3	-1.01	inactive
4	WDR91 (GeneID 29062)	1	0.581	inactive
5	WDR91 (GeneID 29062)	2	0.56	inactive
6	WDR91 (GeneID 29062)	3	0.0576	inactive
7	BIN3 (GeneID 55909)	1	1.02	inactive
8	BIN3 (GeneID 55909)	2	1.58	inactive
9	BIN3 (GeneID 55909)	3	-1.41	inactive
10	PSD4 (GeneID 23550)	1	-0.444	inactive
11	PSD4 (GeneID 23550)	2	0.317	inactive
12	PSD4 (GeneID 23550)	3	0.867	inactive
13	GORAB (GeneID 92344)	1	-0.994	inactive
14	GORAB (GeneID 92344)	2	-0.98	inactive
15	GORAB (GeneID 92344)	3	0.0934	inactive
16	SLC7A6 (GeneID 9057)	1	-0.295	inactive
17	SLC7A6 (GeneID 9057)	2	0.456	inactive
18	SLC7A6 (GeneID 9057)	3	-0.313	inactive
19	ZNF101 (GeneID 94039)	1	1.88	inactive
20	ZNF101 (GeneID 94039)	2	-2.05	inactive
21	ZNF101 (GeneID 94039)	3	-2.55	inactive
22	ABHD18 (GeneID 80167)	1	0.847	inactive
23	ABHD18 (GeneID 80167)	2	-2.31	inactive
24	ABHD18 (GeneID 80167)	3	-0.65	inactive

Part of the list above, set out differently:
| target gene | reagent | total luciferase, z-score | outcome |
| --- | --- | --- | --- |
| GLCCI1 (GeneID 113263) | 1 | -0.545 | inactive |
| GLCCI1 (GeneID 113263) | 2 | 1.07 | inactive |
| GLCCI1 (GeneID 113263) | 3 | -1.01 | inactive |
| WDR91 (GeneID 29062) | 1 | 0.581 | inactive |
| WDR91 (GeneID 29062) | 2 | 0.56 | inactive |

Additional records:
no.	target gene	reagent	total luciferase, z-score	outcome
25	TLCD3A (GeneID 79850)	1	0.0358	inactive
26	TLCD3A (GeneID 79850)	2	0.777	inactive
27	TLCD3A (GeneID 79850)	3	0.0146	inactive
28	UBL7 (GeneID 84993)	1	-1.38	inactive
29	UBL7 (GeneID 84993)	2	-0.4	inactive
30	UBL7 (GeneID 84993)	3	1.83	inactive
31	EXPH5 (GeneID 23086)	1	1.36	inactive
32	EXPH5 (GeneID 23086)	2	0.405	inactive
33	EXPH5 (GeneID 23086)	3	-0.277	inactive
34	SPATS2 (GeneID 65244)	1	0.53	inactive
35	SPATS2 (GeneID 65244)	2	0.449	inactive
36	SPATS2 (GeneID 65244)	3	0.874	inactive
37	EI24 (GeneID 9538)	1	3.5	active
38	EI24 (GeneID 9538)	2	0.83	inactive
39	EI24 (GeneID 9538)	3	0.242	inactive
40	STMN1 (GeneID 3925)	1	0.255	inactive
41	STMN1 (GeneID 3925)	2	0.524	inactive
42	STMN1 (GeneID 3925)	3	1.28	inactive
43	ROM1 (GeneID 6094)	1	1.03	inactive
44	ROM1 (GeneID 6094)	2	-0.345	inactive
45	ROM1 (GeneID 6094)	3	-0.619	inactive
46	LOC401220 (retired record) (GeneID 401220)	1	1.79	inactive
47	LOC401220 (retired record) (GeneID 401220)	2	2.84	inactive
48	LOC401220 (retired record) (GeneID 401220)	3	-2.62	inactive
49	UBE2Q2P1 (GeneID 388165)	1	-0.132	inactive
50	UBE2Q2P1 (GeneID 388165)	2	0.883	inactive
51	UBE2Q2P1 (GeneID 388165)	3	-1.61	inactive
52	RASGEF1C (GeneID 255426)	1	-1.22	inactive
53	RASGEF1C (GeneID 255426)	2	-0.0285	inactive
54	RASGEF1C (GeneID 255426)	3	0.643	inactive
55	ANKEF1 (GeneID 63926)	1	-1.05	inactive
56	ANKEF1 (GeneID 63926)	2	-0.156	inactive
57	ANKEF1 (GeneID 63926)	3	0.82	inactive
